Among the data in publication PMC4932458 are binding values, retold here.

The target of this test is T1, FANCA protein (human (endogenous in HEK 293T)) (UniProt O15360).
T1 sequence: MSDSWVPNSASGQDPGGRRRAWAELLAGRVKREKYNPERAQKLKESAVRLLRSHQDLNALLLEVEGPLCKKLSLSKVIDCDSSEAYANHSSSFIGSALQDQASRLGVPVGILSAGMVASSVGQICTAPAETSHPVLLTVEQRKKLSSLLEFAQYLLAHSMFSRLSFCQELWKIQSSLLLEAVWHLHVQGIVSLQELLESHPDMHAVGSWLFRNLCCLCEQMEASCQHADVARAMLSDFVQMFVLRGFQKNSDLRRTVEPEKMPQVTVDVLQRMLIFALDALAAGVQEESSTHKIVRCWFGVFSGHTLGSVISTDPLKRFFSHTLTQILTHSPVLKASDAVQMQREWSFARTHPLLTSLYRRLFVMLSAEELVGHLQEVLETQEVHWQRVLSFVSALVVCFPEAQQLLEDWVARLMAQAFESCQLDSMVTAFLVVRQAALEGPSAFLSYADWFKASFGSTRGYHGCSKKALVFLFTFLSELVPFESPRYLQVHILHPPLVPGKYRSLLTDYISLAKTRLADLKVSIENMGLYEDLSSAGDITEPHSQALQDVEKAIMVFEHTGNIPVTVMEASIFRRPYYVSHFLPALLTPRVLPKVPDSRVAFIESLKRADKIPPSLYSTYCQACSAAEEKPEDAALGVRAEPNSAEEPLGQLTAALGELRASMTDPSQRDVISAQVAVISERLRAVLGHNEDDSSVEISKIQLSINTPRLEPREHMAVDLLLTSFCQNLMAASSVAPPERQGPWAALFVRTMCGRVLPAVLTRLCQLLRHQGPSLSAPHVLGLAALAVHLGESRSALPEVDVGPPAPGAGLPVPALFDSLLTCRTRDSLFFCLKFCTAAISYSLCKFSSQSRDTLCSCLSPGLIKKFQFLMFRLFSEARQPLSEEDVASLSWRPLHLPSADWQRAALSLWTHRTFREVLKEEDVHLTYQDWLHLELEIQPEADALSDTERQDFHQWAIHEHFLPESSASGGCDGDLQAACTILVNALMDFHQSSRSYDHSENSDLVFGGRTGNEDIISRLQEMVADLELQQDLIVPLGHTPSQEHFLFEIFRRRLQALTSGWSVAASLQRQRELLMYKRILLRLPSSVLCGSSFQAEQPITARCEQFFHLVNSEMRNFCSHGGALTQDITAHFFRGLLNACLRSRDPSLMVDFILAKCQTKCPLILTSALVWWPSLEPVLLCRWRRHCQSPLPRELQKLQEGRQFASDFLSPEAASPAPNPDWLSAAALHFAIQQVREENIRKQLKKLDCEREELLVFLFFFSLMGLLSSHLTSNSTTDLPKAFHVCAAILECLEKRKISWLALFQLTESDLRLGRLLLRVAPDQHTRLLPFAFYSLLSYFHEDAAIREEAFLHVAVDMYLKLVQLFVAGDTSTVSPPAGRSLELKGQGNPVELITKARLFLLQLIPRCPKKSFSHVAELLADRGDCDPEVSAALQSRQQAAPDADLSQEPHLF
The experiment in a line: co-IP; HEK 293T cells treated with 200 ng/mL MMC for 16 h; lysis buffer 50 mM Tris-Cl pH 7.4, 150 mM NaCl, 0.3% Igepal CA-630, 0.2% Triton X-100; precleared lysates precipitated with anti-FANCA antibody and protein A-agarose at 4 °C; Aurora A kinase detected by immunoblot. (Immunoblotting shows a protein as a band on a membrane.)

These are yes or no findings as the source states them, for the method shown. Binding seen in cells or lysates may run through a third protein. Some entries that bind do so weakly or less than the wild type.

B1: Aurora A kinase (enzyme, UniProt O14965 1-403)
chain: MDRSKENCISGPVKATAPVGGPKRVLVTQQFPCQNPLPVNSGQAQRVLCPSNSSQRIPLQAQKLVSSHKPVQNQKQKQLQATSVPHPVSRPLNNTQKSKQPLPSAPENNPEEELASKQKNEESKKRQWALEDFEIGRPLGKGKFGNVYLAREKQSKFILALKVLFKAQLEKAGVEHQLRREVEIQSHLRHPNILRLYGYFHDATRVYLILEYAPLGTVYRELQKLSKFDEQRTATYITELANALSYCHSKRVIHRDIKPENLLLGSAGELKIADFGWSVHAPSSRRTTLCGTLDYLPPEMIEGRMHDEKVDLWSLGVLCYEFLVGKPPFEANTYQETYKRISRVEFTFPDFVTEGARDLISRLLKHNPSQRPMLREVLEHPWITANSSKPSNCQNKESASKQS
For B1, the binding result is “binds”.
